Laboratory results: article PMC8338941
These are yes or no findings as the source states them, for the method shown. For part of these data: Binding seen in cells or lysates may run through a third protein. Some results given as binding are weak or reduced against the parent protein; the word gives no strength.

Amino acid sequences for entries named in this document (tags omitted). A change or cut given only in a name is not applied to a line headed by its entry.
UniProt P38789: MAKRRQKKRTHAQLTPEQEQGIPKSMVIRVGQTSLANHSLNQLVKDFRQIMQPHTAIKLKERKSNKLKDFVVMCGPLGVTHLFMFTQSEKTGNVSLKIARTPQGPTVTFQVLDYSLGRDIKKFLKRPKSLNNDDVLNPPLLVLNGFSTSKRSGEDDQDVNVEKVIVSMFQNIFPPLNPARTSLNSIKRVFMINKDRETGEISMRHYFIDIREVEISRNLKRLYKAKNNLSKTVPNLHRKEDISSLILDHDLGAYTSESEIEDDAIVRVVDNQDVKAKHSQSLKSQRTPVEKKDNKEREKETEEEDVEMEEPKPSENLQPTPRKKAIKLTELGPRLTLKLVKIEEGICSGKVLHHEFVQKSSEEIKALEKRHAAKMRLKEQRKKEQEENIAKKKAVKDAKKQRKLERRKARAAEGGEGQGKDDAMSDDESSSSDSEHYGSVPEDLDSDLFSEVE
UniProt P53742: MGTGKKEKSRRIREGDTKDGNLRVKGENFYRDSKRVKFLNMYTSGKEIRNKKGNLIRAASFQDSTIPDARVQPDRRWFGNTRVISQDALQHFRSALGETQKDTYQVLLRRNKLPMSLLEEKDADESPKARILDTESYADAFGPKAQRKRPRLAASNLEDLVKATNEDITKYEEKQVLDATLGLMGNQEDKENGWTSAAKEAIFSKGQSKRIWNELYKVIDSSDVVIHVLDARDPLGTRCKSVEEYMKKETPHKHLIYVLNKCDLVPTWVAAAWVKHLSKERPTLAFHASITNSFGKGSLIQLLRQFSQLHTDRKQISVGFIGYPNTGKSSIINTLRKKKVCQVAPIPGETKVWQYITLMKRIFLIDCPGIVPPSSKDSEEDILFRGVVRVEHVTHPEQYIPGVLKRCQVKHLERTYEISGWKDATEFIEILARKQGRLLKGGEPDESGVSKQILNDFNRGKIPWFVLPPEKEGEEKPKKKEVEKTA
UniProt Q04373: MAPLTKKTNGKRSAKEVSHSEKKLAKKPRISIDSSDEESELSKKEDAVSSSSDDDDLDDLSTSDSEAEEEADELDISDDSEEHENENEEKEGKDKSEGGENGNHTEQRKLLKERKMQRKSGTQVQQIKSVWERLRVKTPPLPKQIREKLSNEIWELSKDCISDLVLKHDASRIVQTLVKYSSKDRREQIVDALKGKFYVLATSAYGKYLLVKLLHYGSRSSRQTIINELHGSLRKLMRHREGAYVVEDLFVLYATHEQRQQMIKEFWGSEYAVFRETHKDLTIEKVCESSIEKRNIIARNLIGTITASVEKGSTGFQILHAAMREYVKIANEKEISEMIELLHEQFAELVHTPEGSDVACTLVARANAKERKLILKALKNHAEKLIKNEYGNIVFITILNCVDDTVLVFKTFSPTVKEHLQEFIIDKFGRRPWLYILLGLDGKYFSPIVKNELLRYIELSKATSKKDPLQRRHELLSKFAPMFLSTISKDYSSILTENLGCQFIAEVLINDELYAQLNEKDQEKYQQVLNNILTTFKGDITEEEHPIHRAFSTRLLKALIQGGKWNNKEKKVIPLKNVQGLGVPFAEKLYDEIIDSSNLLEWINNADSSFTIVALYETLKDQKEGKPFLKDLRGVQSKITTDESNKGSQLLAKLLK
UniProt Q12019: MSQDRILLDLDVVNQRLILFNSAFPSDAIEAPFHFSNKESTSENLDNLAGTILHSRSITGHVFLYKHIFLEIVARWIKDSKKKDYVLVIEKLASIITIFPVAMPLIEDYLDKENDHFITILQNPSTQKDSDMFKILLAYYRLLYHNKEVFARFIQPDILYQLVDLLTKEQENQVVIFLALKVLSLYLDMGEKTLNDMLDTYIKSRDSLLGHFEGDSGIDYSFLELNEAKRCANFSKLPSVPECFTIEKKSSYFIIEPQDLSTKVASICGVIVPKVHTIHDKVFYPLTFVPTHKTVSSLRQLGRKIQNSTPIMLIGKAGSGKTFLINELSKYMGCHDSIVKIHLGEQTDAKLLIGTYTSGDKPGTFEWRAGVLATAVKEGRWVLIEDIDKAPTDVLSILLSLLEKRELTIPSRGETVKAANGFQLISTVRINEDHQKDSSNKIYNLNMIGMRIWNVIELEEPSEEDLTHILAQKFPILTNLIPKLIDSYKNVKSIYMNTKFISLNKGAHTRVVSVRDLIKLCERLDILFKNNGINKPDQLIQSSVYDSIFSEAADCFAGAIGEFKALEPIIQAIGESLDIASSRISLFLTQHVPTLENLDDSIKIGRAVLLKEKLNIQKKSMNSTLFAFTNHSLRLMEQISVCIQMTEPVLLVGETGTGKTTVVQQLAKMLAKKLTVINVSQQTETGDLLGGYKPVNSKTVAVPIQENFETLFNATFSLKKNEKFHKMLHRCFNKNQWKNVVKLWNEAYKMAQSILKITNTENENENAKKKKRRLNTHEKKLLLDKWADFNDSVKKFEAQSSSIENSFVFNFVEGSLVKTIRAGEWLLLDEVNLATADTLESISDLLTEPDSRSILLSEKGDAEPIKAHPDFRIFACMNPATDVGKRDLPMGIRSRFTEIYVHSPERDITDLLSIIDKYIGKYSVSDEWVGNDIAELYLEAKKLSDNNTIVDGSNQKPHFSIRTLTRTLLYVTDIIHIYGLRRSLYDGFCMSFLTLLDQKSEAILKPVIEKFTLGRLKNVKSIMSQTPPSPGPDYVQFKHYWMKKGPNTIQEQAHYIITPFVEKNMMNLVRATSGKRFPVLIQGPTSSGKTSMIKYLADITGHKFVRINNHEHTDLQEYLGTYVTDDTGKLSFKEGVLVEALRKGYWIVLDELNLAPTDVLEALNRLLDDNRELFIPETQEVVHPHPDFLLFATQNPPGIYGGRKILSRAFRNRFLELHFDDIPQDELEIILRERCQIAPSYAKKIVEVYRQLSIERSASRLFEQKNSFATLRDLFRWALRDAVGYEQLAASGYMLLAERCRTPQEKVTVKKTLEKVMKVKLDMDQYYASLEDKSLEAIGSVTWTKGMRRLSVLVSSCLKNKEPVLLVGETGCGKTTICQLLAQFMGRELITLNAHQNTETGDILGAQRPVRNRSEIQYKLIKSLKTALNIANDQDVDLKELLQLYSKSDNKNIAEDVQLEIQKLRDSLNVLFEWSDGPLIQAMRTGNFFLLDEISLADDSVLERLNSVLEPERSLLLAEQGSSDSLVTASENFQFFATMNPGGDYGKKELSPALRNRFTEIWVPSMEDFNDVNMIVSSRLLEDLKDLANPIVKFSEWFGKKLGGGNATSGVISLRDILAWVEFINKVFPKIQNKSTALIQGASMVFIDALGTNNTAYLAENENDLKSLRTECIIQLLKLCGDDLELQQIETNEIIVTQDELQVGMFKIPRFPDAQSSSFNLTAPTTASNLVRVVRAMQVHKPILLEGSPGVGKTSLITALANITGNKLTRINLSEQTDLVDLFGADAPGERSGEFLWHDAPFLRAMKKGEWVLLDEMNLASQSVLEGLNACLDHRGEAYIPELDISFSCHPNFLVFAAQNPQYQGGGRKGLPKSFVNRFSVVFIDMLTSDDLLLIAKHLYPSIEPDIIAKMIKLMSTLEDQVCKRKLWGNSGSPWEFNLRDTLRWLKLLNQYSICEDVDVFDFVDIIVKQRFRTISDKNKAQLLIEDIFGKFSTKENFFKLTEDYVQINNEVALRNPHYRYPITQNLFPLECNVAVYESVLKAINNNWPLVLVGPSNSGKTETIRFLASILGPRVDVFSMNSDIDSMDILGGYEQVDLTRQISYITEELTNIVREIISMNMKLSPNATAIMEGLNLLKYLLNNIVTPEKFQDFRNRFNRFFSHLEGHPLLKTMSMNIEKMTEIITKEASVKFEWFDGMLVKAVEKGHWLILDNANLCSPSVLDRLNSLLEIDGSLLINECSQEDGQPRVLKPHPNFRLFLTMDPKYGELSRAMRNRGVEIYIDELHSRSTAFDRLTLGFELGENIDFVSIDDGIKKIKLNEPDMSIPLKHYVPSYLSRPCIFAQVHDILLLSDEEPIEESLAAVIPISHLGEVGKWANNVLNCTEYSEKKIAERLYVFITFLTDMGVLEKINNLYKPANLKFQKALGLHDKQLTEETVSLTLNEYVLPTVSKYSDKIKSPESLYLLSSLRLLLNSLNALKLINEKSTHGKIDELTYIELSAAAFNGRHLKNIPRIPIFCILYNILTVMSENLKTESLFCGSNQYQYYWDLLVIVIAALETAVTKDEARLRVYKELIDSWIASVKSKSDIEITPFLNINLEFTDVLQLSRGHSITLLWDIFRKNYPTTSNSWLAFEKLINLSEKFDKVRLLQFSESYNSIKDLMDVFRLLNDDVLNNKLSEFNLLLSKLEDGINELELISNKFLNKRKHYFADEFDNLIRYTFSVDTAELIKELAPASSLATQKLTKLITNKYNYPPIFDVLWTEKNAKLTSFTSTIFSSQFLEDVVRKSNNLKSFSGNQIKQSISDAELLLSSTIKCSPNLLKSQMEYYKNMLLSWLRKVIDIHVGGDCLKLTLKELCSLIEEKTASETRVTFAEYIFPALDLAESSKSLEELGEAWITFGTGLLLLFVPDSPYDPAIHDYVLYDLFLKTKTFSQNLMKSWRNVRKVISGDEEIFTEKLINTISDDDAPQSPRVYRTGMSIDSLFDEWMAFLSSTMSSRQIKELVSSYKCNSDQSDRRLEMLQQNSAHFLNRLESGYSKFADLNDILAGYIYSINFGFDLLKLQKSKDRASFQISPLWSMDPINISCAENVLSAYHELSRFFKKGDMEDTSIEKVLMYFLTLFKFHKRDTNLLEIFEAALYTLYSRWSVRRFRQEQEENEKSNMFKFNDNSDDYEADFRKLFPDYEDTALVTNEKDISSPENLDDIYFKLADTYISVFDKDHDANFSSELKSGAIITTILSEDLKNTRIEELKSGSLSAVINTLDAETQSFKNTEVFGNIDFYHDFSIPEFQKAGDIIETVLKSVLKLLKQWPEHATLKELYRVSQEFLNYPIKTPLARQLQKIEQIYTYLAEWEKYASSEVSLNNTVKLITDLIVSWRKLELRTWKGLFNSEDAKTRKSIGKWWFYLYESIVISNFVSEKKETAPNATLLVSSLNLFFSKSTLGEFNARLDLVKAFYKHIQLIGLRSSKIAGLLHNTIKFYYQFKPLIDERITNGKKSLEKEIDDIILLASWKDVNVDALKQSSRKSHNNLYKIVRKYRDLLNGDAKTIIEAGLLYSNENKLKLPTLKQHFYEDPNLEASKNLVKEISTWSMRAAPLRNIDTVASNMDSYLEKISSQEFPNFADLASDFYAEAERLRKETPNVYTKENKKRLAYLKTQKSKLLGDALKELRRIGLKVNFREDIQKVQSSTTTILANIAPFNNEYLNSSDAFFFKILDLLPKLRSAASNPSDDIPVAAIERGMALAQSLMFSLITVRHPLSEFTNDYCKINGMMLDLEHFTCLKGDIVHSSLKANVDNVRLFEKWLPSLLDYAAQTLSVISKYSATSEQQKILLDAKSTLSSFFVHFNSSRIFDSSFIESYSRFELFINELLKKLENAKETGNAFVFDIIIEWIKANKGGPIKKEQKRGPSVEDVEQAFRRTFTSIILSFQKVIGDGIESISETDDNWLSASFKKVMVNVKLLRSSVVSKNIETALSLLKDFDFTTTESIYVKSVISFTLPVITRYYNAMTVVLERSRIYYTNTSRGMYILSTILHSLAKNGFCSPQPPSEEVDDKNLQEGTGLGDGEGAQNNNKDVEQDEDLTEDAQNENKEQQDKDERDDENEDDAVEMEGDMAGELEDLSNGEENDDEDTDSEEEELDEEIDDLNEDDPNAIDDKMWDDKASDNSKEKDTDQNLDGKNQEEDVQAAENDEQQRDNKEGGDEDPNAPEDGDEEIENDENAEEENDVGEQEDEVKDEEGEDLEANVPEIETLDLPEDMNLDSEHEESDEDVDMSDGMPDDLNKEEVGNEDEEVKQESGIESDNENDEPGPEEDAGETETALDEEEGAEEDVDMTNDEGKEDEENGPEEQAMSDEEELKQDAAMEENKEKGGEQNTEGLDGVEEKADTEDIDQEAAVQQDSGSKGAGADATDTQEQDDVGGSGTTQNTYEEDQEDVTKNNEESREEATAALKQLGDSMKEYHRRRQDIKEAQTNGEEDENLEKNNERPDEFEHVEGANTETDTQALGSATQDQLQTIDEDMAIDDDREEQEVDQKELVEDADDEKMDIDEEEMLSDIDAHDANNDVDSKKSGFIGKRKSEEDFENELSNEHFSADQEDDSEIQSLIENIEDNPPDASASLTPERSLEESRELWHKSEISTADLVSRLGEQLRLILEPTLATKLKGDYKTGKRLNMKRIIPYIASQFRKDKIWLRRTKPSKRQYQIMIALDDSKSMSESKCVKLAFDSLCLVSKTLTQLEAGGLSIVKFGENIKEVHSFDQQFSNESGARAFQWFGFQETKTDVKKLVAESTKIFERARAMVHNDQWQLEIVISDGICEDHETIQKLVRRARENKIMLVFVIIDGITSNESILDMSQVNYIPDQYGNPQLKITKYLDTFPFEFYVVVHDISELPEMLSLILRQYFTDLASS

Key:
[1] = molecular target: Ssf1-TAP (S. cerevisiae) (UniProt P38789); test: co-IP; Tandem affinity purification (TAP) of 60S pre-ribosomal particles via TAP-tagged bait proteins from yeast; calmodulin eluates separated on NuPAGE 4-12% Bis-Tris gels, Western blotting
[2] = molecular target: Nog2-TAP (S. cerevisiae) (UniProt P53742); test: as above
[3] = molecular target: T1, Arx1-TAP (S. cerevisiae) (UniProt Q03862); test: as above
T1 sequence: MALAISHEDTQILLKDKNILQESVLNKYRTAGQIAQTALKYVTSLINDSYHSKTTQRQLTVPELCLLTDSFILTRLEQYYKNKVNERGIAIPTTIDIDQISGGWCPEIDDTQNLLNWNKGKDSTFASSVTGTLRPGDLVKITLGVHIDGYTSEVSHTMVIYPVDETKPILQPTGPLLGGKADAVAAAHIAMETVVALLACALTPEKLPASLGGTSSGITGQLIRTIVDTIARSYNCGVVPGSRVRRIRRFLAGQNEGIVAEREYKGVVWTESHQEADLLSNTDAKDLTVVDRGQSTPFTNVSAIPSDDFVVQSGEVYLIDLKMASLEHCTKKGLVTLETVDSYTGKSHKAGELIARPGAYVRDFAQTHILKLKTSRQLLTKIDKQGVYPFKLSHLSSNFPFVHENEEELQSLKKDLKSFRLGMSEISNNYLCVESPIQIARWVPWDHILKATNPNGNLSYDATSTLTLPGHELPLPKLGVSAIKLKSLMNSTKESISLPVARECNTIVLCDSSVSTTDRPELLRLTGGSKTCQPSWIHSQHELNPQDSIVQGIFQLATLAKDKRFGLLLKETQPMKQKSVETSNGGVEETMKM

[4] = molecular target: T2, Kre35-TAP (S. cerevisiae) (UniProt P53145); test: as above
T2 sequence: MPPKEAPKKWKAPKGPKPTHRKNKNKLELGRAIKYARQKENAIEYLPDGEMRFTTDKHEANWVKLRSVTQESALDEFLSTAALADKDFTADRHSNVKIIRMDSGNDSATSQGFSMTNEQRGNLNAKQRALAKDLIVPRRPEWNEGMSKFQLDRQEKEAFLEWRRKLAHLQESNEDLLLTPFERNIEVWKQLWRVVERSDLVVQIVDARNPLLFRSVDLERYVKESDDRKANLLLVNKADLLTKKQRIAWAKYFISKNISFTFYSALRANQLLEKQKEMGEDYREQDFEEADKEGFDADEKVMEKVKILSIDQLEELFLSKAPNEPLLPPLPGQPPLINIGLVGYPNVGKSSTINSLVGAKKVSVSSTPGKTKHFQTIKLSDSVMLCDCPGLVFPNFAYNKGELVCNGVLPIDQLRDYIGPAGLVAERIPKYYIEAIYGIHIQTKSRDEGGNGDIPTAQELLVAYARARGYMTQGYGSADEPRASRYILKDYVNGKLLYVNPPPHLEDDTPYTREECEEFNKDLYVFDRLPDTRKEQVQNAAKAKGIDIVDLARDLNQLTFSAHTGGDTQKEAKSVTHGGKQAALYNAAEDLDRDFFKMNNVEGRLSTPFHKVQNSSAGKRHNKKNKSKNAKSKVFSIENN

[5] = molecular target: T3, Nop7-TAP (S. cerevisiae) (UniProt P53261); test: co-IP; Nop7-TAP particles isolated from WT and puf6∆ cells grown at 20 °C; NuPAGE 4-12% Bis-Tris gel, Silver staining and Western analysis
T3 sequence: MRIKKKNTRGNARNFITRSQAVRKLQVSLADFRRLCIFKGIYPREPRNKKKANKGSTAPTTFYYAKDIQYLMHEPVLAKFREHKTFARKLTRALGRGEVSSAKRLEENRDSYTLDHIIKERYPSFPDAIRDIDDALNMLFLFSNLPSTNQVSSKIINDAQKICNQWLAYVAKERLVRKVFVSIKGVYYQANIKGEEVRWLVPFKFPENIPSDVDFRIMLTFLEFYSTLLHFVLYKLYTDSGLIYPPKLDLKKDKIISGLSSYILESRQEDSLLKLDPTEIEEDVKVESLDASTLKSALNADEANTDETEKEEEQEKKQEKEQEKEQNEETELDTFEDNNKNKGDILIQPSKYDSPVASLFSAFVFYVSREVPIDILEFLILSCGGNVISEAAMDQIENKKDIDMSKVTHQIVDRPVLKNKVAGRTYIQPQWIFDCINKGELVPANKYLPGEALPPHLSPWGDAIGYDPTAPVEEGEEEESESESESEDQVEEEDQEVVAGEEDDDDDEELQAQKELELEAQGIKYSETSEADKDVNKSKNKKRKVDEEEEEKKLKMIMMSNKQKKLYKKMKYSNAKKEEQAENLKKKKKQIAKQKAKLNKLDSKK

[6] = molecular target: Puf6-TAP (S. cerevisiae) (UniProt Q04373); test: co-IP; Tandem affinity purification (TAP) of 60S pre-ribosomal particles via TAP-tagged bait proteins from yeast; calmodulin eluates separated on NuPAGE 4-12% Bis-Tris gels, Western blotting
[7] = molecular target: T4, Rix1-TAP (S. cerevisiae) (UniProt P38883); test: as above
T4 sequence: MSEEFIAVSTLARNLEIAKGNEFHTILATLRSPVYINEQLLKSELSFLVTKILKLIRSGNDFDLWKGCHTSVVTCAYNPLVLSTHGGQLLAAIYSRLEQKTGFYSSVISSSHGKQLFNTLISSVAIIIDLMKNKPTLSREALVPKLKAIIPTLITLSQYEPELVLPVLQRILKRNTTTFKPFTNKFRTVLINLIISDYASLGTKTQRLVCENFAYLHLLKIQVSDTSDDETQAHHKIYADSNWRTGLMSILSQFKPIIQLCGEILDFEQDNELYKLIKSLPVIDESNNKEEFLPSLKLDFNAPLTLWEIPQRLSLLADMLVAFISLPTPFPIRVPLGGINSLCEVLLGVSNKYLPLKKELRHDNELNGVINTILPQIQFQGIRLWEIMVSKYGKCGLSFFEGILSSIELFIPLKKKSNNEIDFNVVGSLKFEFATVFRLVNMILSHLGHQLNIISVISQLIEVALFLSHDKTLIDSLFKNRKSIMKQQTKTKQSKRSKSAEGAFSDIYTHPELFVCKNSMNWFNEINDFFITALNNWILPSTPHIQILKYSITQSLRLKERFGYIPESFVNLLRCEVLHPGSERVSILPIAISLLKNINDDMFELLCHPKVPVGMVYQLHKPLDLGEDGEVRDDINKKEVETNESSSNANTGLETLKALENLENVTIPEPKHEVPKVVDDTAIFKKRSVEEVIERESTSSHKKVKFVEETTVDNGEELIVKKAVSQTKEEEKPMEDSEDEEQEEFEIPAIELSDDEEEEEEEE

[8] = molecular target: uL2 (UniProt P0CX45); test: cross-linking; XL-MS of reconstituted Puf6:60S complex; 100 μM purified 60S ribosome with 200 μM Puf6, 20 °C 10 min, 150 mM NaCl, 20 mM HEPES pH7.5, 5 mM MgCl2, 5 mM β-mercaptoethanol; 1 mM DSS-d0/d12, 37 °C 30 min; false discovery rate <5%; both purified

| Substance | binding [1] | binding [3] | binding [4] | also measured |
| --- | --- | --- | --- | --- |
| puf6 R172E R431E (from UniProt Q04373 1-656) | no binding | – | – | – |
| Puf6 (from UniProt Q04373 1-656) | binds | no binding | no binding | binding [2]: no binding |
| Rea1 (from UniProt Q12019 1-4910) | – | – | – | binding [5]: binds |
| His6-Puf6 (from UniProt Q04373 1-656) | – | – | – | binding [8]: binds |

Second part, led by results:

| binding [1] | binding [3] | binding [4] | Substance | also measured |
| --- | --- | --- | --- | --- |
| no binding | – | – | puf6 Y208E R431E (from UniProt Q04373 1-656) | – |
| – | binds weakly | no binding | Nog2 (from UniProt P53742 1-486) | binding [6]: no binding; binding [7]: binds |
